The source of these data is article PMC12800062.

Results are given in words; binding and its absence hold for the method and conditions named. In cells and extracts the contact can be indirect. Some binding calls cover weakened binding; strength is not graded here.

Experiment [1] addresses T1, TGFBR3 (mouse (in primary FAPs from C57BL/6 mice)) (UniProt O88393).
T1 sequence: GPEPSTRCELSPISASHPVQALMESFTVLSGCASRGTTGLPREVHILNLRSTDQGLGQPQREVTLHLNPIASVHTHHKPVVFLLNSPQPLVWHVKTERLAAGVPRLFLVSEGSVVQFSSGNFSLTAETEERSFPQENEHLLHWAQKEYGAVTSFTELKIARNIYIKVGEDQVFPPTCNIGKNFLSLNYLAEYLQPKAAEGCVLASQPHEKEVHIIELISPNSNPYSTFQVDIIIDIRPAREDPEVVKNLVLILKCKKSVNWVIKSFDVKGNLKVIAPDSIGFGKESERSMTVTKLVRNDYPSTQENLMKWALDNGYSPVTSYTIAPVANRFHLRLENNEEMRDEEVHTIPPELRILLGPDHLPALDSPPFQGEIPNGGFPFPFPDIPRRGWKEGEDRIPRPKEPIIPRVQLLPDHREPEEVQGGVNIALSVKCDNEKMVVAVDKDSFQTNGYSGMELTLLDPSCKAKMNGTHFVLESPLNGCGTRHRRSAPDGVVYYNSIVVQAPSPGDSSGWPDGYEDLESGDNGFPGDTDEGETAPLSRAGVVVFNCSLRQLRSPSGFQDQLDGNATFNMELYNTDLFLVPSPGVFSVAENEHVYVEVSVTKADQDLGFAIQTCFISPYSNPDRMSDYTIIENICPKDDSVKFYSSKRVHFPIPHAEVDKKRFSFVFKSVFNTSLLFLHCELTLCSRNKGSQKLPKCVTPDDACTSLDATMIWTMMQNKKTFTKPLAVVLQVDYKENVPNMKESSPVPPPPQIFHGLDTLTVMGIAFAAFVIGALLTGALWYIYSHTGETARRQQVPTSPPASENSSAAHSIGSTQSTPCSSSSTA
The experiment is described as follows: co-IP; CoIP in FAPs with immunoblot, both directions (precipitation of KRT10, blot for TGFBR3; precipitation of TGFBR3, blot for KRT10); input as control; n = 3.

For experiment [2], the target named is T2, KRT10 (mouse (in primary FAPs from C57BL/6 mice)) (UniProt P02535).
T2 sequence: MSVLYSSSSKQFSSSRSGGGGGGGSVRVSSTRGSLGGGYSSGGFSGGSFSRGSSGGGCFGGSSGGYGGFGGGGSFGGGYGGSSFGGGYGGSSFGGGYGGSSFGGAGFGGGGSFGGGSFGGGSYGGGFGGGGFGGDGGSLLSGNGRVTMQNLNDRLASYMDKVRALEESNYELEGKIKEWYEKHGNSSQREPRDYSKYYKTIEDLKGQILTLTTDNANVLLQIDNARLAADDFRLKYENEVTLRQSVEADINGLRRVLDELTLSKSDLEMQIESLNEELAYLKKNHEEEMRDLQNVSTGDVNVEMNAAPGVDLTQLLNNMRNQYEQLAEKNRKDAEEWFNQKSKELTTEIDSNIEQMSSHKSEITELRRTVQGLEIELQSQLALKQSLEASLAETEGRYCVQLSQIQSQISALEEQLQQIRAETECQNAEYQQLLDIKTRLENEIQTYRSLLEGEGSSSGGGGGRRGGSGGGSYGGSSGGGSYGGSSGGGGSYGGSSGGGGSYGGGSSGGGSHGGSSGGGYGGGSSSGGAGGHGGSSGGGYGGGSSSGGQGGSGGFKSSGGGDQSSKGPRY
The description is as above.

B1: KRT10 (protein, UniProt P02535 1-570)
chain: T2 sequence
B1: the binding result in experiment [1] is reported as “binds”.

B2: TGFBR3 (receptor, UniProt O88393 23-850)
chain: T1 sequence
In the case of B2, the binding result in experiment [2] was “binds”.
